Test results taken from paper PMC7819943, “Rice protein-binding microarrays: a tool to detect cis-acting elements near promoter regions in rice”.
The list shows a part of the results.

target: T1, OsSMF1 (Oryza sativa, UniProt Q6ZLB0 1-436); experiment: protein-binding microarray (RPBM); PBS, 2% BSA, 51.3 ng/ul salmon testes DNA, 50 uM zinc acetate, 200 nM TF, 25 C, 1 h; high values mean tight binding; conditions: protein: recombinant; tags: N-terminal polyhistidine and DsRed monomer fusion (pET32a); chain copies: 2; label: CyDye5-dUTP incorporated in the synthesized complementary strand; 3' TTTTT single-stranded linker to array surface; dsDNA, one strand shown
T1 sequence: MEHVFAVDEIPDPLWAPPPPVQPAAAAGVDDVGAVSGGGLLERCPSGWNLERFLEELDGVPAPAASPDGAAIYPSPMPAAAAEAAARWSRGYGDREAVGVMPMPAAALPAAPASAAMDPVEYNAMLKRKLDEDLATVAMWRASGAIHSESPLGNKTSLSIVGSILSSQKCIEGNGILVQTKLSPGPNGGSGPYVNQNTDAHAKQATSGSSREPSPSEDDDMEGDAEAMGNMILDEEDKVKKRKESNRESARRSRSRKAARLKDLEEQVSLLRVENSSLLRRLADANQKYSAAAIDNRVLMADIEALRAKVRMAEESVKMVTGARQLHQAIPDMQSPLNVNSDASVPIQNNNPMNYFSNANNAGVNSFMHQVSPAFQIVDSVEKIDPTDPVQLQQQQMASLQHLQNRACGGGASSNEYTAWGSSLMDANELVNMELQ
Procedure, shortened: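 The binding signal is fluorescence intensity per array feature (arbitrary units). Readings came from an Axon 4000B scanner after a washed, 2% BSA-blocked, double-stranded custom Agilent array had been incubated for 1 h at 25 °C with 200 nM protein and 50 µM zinc acetate. The protein was a Ni–NTA-purified transcription factor fused N-terminally to polyhistidine and DsRed, expressed in E. coli BL21-CodonPlus.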

Sequence | binding signal
GCCCACGTGGCACGCTGACGTGTCCACCTGCCGCGCCGGTCGGAGTCACCTAGTGCAG | 26900 fluorescence intensity (a.u.)
ACGAGATCATCATCTGTAGTTCTTTTGTTGTGCTTTTCATCGGAGTCACCTAGTGCAG | 3320 fluorescence intensity (a.u.)
AGAACTCAACTGGACACACAGTCACAGACAGTGGGCCCTGCGGAGTCACCTAGTGCAG | 3560 fluorescence intensity (a.u.)
CTCCTACCTCTACCGCTGCTACTCACCACACCAGCCGCCGCGGAGTCACCTAGTGCAG | 24200 fluorescence intensity (a.u.)
CCCCTCGCGTCAACACCACCGCGCGCACGCGCTGCTCCTGCGGAGTCACCTAGTGCAG | 4590 fluorescence intensity (a.u.)
AGTACATAATTACGCACATGTGACACACACCACACATACTCGGAGTCACCTAGTGCAG | 3140 fluorescence intensity (a.u.)
CTACCCCGTTGTCGACTACGTGTTGGTGTTCCATGTCGCCCGGAGTCACCTAGTGCAG | 6370 fluorescence intensity (a.u.)
CGCGGCGGCGGCCGTCTTCTCCTCGTTGCTCAGCTCTGGCCGGAGTCACCTAGTGCAG | 27300 fluorescence intensity (a.u.)
ACGTATATAAATTTTGTATACACATATGCAAACTTTGTATCGGAGTCACCTAGTGCAG | 3920 fluorescence intensity (a.u.)
GGATCGAAACTTGTGTTAAACACGTCAACTTCATGCATCTCGGAGTCACCTAGTGCAG | 3310 fluorescence intensity (a.u.)
ATTACTCTTTGTAATGTTTCAGTGCAGCTCCTTTGTGATACGGAGTCACCTAGTGCAG | 3850 fluorescence intensity (a.u.)
AGTCGGAAGGCCACCACATCTGCATGCCATTCTCGTCATTCGGAGTCACCTAGTGCAG | 4590 fluorescence intensity (a.u.)
TAAAGTTGTATTTAATGAAACTAGTTTGGTGTTATAAATGCGGAGTCACCTAGTGCAG | 30400 fluorescence intensity (a.u.)
TGTGCCCGAGGACATGGCGATTGCTGAGGAAATGGCACTGCGGAGTCACCTAGTGCAG | 3210 fluorescence intensity (a.u.)
GTTCAGAATCAGAACTCCGTTTTAATTTGTTCATTAAAGACGGAGTCACCTAGTGCAG | 21400 fluorescence intensity (a.u.)
ATAAGATCACTGATGACACAACACATATGGTTCTTGCAGTCGGAGTCACCTAGTGCAG | 5070 fluorescence intensity (a.u.)
CACACACTACTCCCGCCACGTGGCACGCTCCCACTGGACCCGGAGTCACCTAGTGCAG | 26300 fluorescence intensity (a.u.)
GGCTATTGGGAGCCACGTCAGCCGGTGGCCTCCGCCATCGCGGAGTCACCTAGTGCAG | 22600 fluorescence intensity (a.u.)
AACAGCAGGCCCCACGTGTCACCGACCCGCCTCCCACGTTCGGAGTCACCTAGTGCAG | 12500 fluorescence intensity (a.u.)
ATTGACCGCTTCTGTGATTCGTGATTGGGCTATTTGTAATCGGAGTCACCTAGTGCAG | 3310 fluorescence intensity (a.u.)
GCAGTACGGCAGTAGGTCTGACTCACGCGTCCACGAAAATCGGAGTCACCTAGTGCAG | 3940 fluorescence intensity (a.u.)
AGTACGCTTCTACAGTCTGGATCTGCGTGCCTGGCACGAACGGAGTCACCTAGTGCAG | 3190 fluorescence intensity (a.u.)
CCCGAGAGCGAACGGCCGTCTGCCACGTCATTTTCGCCGCCGGAGTCACCTAGTGCAG | 29700 fluorescence intensity (a.u.)
TGGATCTCTGTCACCGTGTACCGTGATACGCCAAAACCCGCGGAGTCACCTAGTGCAG | 4890 fluorescence intensity (a.u.)
GGGGCTCCCGGAGCACGGCGATGGCCACGTGAGGTACCTGCGGAGTCACCTAGTGCAG | 3400 fluorescence intensity (a.u.)
ATAAGTCTATGGCTAGTTTTAGCATTTAATGTCTTATGGCCGGAGTCACCTAGTGCAG | 3970 fluorescence intensity (a.u.)
ACGATCCAGACACATCACATGTGGCCCCATGCTTCCATCCCGGAGTCACCTAGTGCAG | 5170 fluorescence intensity (a.u.)

Sequence | binding signal
GCGGGGCGGTGACAACGACGGCGGTGCGGGGCGGTGGTGACGGAGTCACCTAGTGCAG | 7540 fluorescence intensity (a.u.)
GATAAGCTGATTCGGTCGAAATGTTAGGTGGTTTCTCAAGCGGAGTCACCTAGTGCAG | 3190 fluorescence intensity (a.u.)
CTGCTATCGTACACCATAGCAATGCCACGTGTTAGAATATCGGAGTCACCTAGTGCAG | 9800 fluorescence intensity (a.u.)
GAGGTAATCGACCTCATCACTGTCAATGATGTGGAGCGCACGGAGTCACCTAGTGCAG | 3940 fluorescence intensity (a.u.)
TCCATACATTATTGACGTAATCATAAATATACATCCATGTCGGAGTCACCTAGTGCAG | 3360 fluorescence intensity (a.u.)
ACCGCCACGTGGACAAGCTCACGATCACGTGCCGCTCACGCGGAGTCACCTAGTGCAG | 4790 fluorescence intensity (a.u.)
TAAAGATGTCTTTTGTTGGGTGGGAAATCATTTTCATTTCCGGAGTCACCTAGTGCAG | 3160 fluorescence intensity (a.u.)
GAAGAAAATGGAGTTAGATGATGTCAAACTGCATGTGATCCGGAGTCACCTAGTGCAG | 3550 fluorescence intensity (a.u.)
AAACCCGCCTACCGGGTATGACGTTATTTAAGTACCTGAGCGGAGTCACCTAGTGCAG | 3540 fluorescence intensity (a.u.)
CCCCTTCCACCACCTCCGCCGACACGAACGTCAGCACCGCCGGAGTCACCTAGTGCAG | 8380 fluorescence intensity (a.u.)
TCACTGTATAACAGCTCACCGCTCGTCACTGACAACGGCACGGAGTCACCTAGTGCAG | 3390 fluorescence intensity (a.u.)
GAAACAAACACATCAGATGACGTTTGTTGAAATGCCTAACCGGAGTCACCTAGTGCAG | 5000 fluorescence intensity (a.u.)
ACGGAGGGAGTATTTGGACTTATTACACATACCGGTTTTGCGGAGTCACCTAGTGCAG | 3500 fluorescence intensity (a.u.)
ATGGATAACGAAGACGTTATAGAAGGTGATGACTAGCCGTCGGAGTCACCTAGTGCAG | 3700 fluorescence intensity (a.u.)
TCCTAATTTCCTCAACCTACAGGGTCACATGCAACAGACACGGAGTCACCTAGTGCAG | 3260 fluorescence intensity (a.u.)
CTCCAAGTCCAACCTGACGTGGGACCCACCTGTCATCGACCGGAGTCACCTAGTGCAG | 4740 fluorescence intensity (a.u.)
GGGTCCAGGATATGATAAGAATGATTTGGCACTCCATTGGCGGAGTCACCTAGTGCAG | 3990 fluorescence intensity (a.u.)
CTATTAGGTATGTGGTATCTATAACCCTGACAGTAGCCCCCGGAGTCACCTAGTGCAG | 3300 fluorescence intensity (a.u.)
GAGAGAAGAGGGGAAAAGAGAGAGGAGTTTGATGACGTGGCGGAGTCACCTAGTGCAG | 39300 fluorescence intensity (a.u.)
ATGCCAGCACGGCCTTGCTACTCGTCATCACATGGCCGCCCGGAGTCACCTAGTGCAG | 4260 fluorescence intensity (a.u.)
GTGTAAAAGTTTTGACGTGTCACATCGGATATACGGACACCGGAGTCACCTAGTGCAG | 15300 fluorescence intensity (a.u.)
CGCCGCGAGCTAAAACCGATGGTGACTTGGTGAGCCAGCCCGGAGTCACCTAGTGCAG | 3930 fluorescence intensity (a.u.)
GGCCCTAACCCCACCGACCACCCGCGGCCCTCGTCTTCCTCGGAGTCACCTAGTGCAG | 4210 fluorescence intensity (a.u.)
TCCTTCTATATGTTTGCACTTACGTGGGCCGTATTTATGCCGGAGTCACCTAGTGCAG | 9040 fluorescence intensity (a.u.)
GAGGGCTGAGCTCGTTGGGTACTTGGCCGTGCCGACGACGCGGAGTCACCTAGTGCAG | 3400 fluorescence intensity (a.u.)
CCTCGTCCCCGCCGCCGCCGCCGCCGTTAGATTGAAGCAGCGGAGTCACCTAGTGCAG | 33500 fluorescence intensity (a.u.)
TGTCTCAATCCACACGAAAGCTATCCAGTTCGTCATCAAGCGGAGTCACCTAGTGCAG | 3760 fluorescence intensity (a.u.)

Reformatted: results already given
TCACTGTATAACAGCTCACCGCTCGTCACTGACAACGGCACGGAGTCACCTAGTGCAG
  binding signal: 3390 fluorescence intensity (a.u.)
ATGGATAACGAAGACGTTATAGAAGGTGATGACTAGCCGTCGGAGTCACCTAGTGCAG
  binding signal: 3700 fluorescence intensity (a.u.)

Single values from the results shown.
TCCATACATTATTGACGTAATCATAAATATACATCCATGTCGGAGTCACCTAGTGCAG – binding signal: 3360 fluorescence intensity (a.u.)
GAGAGAAGAGGGGAAAAGAGAGAGGAGTTTGATGACGTGGCGGAGTCACCTAGTGCAG – binding signal: 39300 fluorescence intensity (a.u.)
